Data on one sequence can be found in paper PMC9688306.

By UniProt entry, the sequences of proteins in these tests, tags left out. Residues count along the entry.
UniProt P15941, 24-1097: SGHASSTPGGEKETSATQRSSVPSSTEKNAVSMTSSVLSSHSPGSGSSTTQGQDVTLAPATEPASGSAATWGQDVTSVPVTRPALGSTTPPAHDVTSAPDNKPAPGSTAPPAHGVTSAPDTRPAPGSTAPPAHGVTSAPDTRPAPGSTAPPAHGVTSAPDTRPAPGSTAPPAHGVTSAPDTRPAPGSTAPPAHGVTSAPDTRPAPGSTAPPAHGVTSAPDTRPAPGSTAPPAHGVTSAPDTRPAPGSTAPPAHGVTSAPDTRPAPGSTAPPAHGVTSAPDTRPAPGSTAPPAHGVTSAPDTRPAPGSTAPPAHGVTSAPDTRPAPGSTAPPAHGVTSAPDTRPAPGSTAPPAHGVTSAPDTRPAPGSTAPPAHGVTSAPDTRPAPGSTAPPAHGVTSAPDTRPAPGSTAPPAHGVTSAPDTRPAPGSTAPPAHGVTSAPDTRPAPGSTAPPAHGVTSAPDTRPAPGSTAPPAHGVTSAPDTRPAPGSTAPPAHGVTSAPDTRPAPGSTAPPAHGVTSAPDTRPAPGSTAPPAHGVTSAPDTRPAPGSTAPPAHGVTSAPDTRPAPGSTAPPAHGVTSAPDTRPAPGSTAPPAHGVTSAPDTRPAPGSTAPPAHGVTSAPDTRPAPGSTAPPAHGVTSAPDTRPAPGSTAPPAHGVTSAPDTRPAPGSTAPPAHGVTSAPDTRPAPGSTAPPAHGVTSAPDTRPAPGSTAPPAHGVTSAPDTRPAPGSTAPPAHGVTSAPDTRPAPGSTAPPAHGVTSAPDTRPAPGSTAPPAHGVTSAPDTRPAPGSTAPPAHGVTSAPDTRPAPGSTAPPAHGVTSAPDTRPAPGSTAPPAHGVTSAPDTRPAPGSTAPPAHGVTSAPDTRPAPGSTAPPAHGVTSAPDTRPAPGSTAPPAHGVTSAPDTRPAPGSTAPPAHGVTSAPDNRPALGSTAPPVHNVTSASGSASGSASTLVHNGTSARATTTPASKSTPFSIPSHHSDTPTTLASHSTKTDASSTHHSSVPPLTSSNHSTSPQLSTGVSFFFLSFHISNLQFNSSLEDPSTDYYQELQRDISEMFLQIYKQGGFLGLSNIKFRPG

In this data set the target is CA 15-3 (Cancer Antigen 15-3) (UniProt P15941). As to the kind of experiment: electrochemical aptasensor (CV, SWV). The following applies: methylene blue label, PBS, linear 1-9 U/mL, LOD 0.2 U/mL (no Kd); PBS pH 7.4 (0.1 M), room temperature, 35 min incubation; 0.2 mM ferricyanide probe (label-free) or methylene blue in PBS (label-based); single-stranded DNA.

Construct, isoform or probe ends are uncertain for at least one entry. At least one verdict was read from the data and is not stated in words by the source.

For the sequence “GAAGTGAATATGACAGATCACAACT [CA 15-3 aptamer]”, the binding result is given as “binds”.
